In assay [1] the target is wildtype Chinese hamster BiP, unmodified (BiP^WT) (Chinese hamster (Cricetulus griseus)) (UniProt G3I8R9). Briefly: condition: only with 1.5 mM ATP and GST-J^QPD instead of GST-J^WT; SEC; analytical SEC, BiP at 50 µM in HKM buffer, room temperature, with 1.5 mM ATP and mutant GST-J^QPD; self-association; both purified.
Assay [2] has the same target. The experiment in a line: SEC; analytical SEC, BiP at 50 µM in HKM buffer, room temperature, with 1.5 mM ATP; self-association; both purified.
For assay [3] the target is unchanged. The assay is described as above. This is another data set of the same source.
Assay [4] deals with AMPylated wildtype Chinese hamster BiP (BiP^WT-AMP) (Chinese hamster (Cricetulus griseus)) (UniProt G3I8R9). Briefly: SEC; analytical SEC (SEC-3 HPLC column), BiP at 50 µM in HKM buffer, room temperature, no added nucleotide or 1.5 mM ADP; self-association (monomer, dimer, trimer, HMW oligomers); both purified. On the technique in general: Size exclusion chromatography separates by hydrodynamic size, large species first.

Protein sequences, listed by entry. Tags and fused reporters are not part of them. Residues count along the entry.
UniProt G3I8R9, residues 19-654: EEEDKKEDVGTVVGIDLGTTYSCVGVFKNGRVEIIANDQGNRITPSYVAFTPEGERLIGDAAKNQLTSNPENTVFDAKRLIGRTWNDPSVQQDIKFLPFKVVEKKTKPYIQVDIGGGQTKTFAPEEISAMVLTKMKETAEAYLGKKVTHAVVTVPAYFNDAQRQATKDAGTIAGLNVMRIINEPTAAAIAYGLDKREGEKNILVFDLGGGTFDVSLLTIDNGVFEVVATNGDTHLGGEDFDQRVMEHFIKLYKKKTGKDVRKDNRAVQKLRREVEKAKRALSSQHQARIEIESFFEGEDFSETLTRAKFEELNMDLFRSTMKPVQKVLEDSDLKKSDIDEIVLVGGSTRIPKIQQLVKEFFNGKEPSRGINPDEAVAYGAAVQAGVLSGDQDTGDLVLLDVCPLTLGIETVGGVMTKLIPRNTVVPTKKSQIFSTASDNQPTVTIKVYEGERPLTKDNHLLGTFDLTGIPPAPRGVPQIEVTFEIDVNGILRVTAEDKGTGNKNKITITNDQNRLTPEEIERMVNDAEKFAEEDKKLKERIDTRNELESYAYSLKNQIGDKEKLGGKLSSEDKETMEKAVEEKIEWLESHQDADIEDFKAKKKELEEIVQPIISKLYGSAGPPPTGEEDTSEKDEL

Assay [5] has the same target. Briefly: SEC; analytical SEC, BiP at 50 µM in HKM buffer, room temperature, with 1.5 mM ATP and GST-J^WT (1.25-10 µM); J domain-mediated BiP oligomerization; both purified.
For assay [6] the target is unchanged. Briefly: SEC; analytical SEC, BiP at 50 µM in HKM buffer, room temperature, with 1.5 mM ATP; self-association; both purified.

Results are given in words; binding and its absence hold for the method and conditions named. Some binding calls cover weakened binding; strength is not graded here.

For “wildtype Chinese hamster BiP, unmodified (BiP^WT) (from UniProt G3I8R9 19-654)”, the figures for the binding entry in assay [1], in assay [2] and in assay [3] were “no binding”, “binds weakly” and “no binding (condition: with 1.5 mM ATP)”, respectively.
Turning to “AMPylated wildtype Chinese hamster BiP (BiP^WT-AMP) (from UniProt G3I8R9 19-654)”, the binding result is given as “binds weakly” in assay [4], “binds weakly” in assay [5] and “no binding (condition: with 1.5 mM ATP)” in assay [6].
